Not every detail of the peptide structures is certain; ends, links or a residue may be inferred.
Experiments:
[1] = target: bovine renal membrane adenylate cyclase; assay: Bovine renal membrane adenylate cyclase assay; type: biochemical; settings: bovine renal membranes; adenylate cyclase stimulated by 3 nM [Nle^8,18,Tyr^34]bPTH(1-34)NH2 or 30 nM HCF(1-34)NH2
[2] = system: human osteosarcoma cell line, B10; assay: B10 adenylate cyclase assay (inhibition of cAMP stimulation); type: cell-based; settings: B10 human osteosarcoma cells; inhibition of cAMP stimulation by 1 nM [Nle^8,18,Tyr^34]bPTH(1-34)NH2

## CC[C@H](C)[C@H](NC(=O)[C@H](CC(C)C)NC(=O)[C@H](Cc1c[nH]cn1)NC(=O)[C@H](Cc1c[nH]cn1)NC(=O)[C@H](CC(C)C)NC(=O)[C@H](Cc1ccccc1)NC(=O)[C@H](Cc1ccccc1)NC(=O)[C@H](CCCNC(=N)N)NC(=O)[C@H](CCCNC(=N)N)NC(=O)[C@H](CCCNC(=N)N)NC(=O)[C@H](CC(C)C)NC(=O)[C@H](CC(=O)O)NC(=O)[C@H](CCC(N)=O)NC(=O)[C@@H](NC(=O)[C@H](CO)NC(=O)[C@H](CCCCNC(=O)CCc1ccccc1)NC(=O)[C@@H](Cc1c[nH]c2ccccc12)NC(=O)[C@H](CC(C)C)NC(=O)[C@H](CC(=O)O)NC(=O)[C@H](Cc1c[nH]cn1)NC(=O)CCC(C)C)[C@@H](C)CC)C(=O)N[C@@H](C)C(=O)N[C@@H](CCC(=O)O)C(=O)N[C@H](C(=O)N[C@@H](Cc1c[nH]cn1)C(=O)N[C@H](C(=O)N[C@@H](C)C(N)=O)[C@@H](C)O)[C@@H](C)CC [desamino [Leu^11, D-Trp^12, Lys^13 (N^ε --CO(CH2)2 -Phenyl)]hHCF(8-34)NH2]
[1]
  Ki: 42 ± 5 nM
[2]
  Ki: 7.03 nM
